## Primary screen of a compound library

Measurements from “University of Dundee, Small-Polar-MMV Screening Library” (2021), ChEMBL document CHEMBL3988442.

Toxoplasma: 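Assay of Toxoplasma gondii numbers, read through their beta-galactosidase reporter with a colour substrate. Compounds at 10 µM. Higher reads as fewer parasites (inferred from which compounds were picked for retests). Of about 67,000 compounds tested this way, about 260 (0.38%) reached 50% or more in at least one test.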
Leishmania in macrophages: 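Cell assay of Leishmania donovani living inside macrophages; the read-out is not stated. Concentration: 30 µM. Higher reads as stronger inhibition (inferred: compounds with an IC50 in retests scored well above the rest). Size under these conditions: about 69,000 compounds, about 1,000 of them at 50% or above in at least one test.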

Each number is a percent effect as filed. The controls that fix the scale are not given in the record; negative values are as filed. Compounds were drawn at random from those tested, without regard to their results. Two or more numbers in one place are separate tests of the same structure; such repeats can differ widely. A dash means the value is not listed here; it may have been measured.

| # | structure | Toxoplasma | Leishmania in macrophages |
|---|---|---|---|
| 1 | `COCCNC(=O)Nc1ccn(-c2cccc(C(F)(F)F)c2)n1` | 2.336 | -2.256 |
| 2 | `Cc1cc(C(C)(O)CNC(=O)OC(C)(C)C)c(C)o1` (stereo unspecified) | -0.3846 | -1.03 |
| 3 | `CCN1CCc2cc(-c3cncn3CCNC3CCS(=O)(=O)C3)ccc21.Cl` (stereo unspecified) | - | -4.613 |
| 4 | `CN(Cc1ncnn1C)C(=O)CCn1ccc2ccccc21` | 2.537 | 14.15 |
| 5 | `Cc1cc(-c2nn3c(C4CCC4)nnc3s2)on1` | -24.96 | 13.35 |
| 6 | `CCn1ncnc1C1CC(=O)NCc2nc(N3CCCC3)sc21` (stereo unspecified) | -3.294 | -15.51 |
| 7 | `COc1cc(S(=O)(=O)N2CCc3ccc(F)cc32)cc(C(=O)O)c1OC` | -2.591 | -3.031 |
| 8 | `CCOC(=O)c1n[nH]cc1CN1CCOC(Cc2ccc(OC)cc2)C1` (stereo unspecified) | -7.919 | 23.48 |
| 9 | `CS(=O)(=O)N1CCOCC2(CN(Cc3ccsc3)CCO2)C1.O=C(O)C(F)(F)F` (stereo unspecified) | 9.128 | -2.025 |
| 10 | `CC(C)c1nnc(CN2CCCC(Cn3cncn3)C2)o1` (stereo unspecified) | -7.121 | 20.51 |
| 11 | `O=C(Cc1ccc2c(c1)OCO2)N1CCN(c2cnccn2)CC1` | -11.71 | 23.46 |
| 12 | `Cn1cnnc1CN1CCC2(CCCN(C3CCCCC3)C2=O)C1` (stereo unspecified) | -32.36 | 1.601 |
| 13 | `O=C(CCN1CCOC1=O)Nc1cnn(-c2ccccc2Cl)c1` | 8.839 | 9.065 |
| 14 | `COC(=O)C1CCN(C(=O)c2ccc(NS(C)(=O)=O)c(C)c2)CC1` | 1.042 | 1.776 |
| 15 | `Cc1ccc2c(c1)SCC(=O)N2CC(=O)N1CCC[C@H]1c1nc(C)no1` | -12.26 | 11.84 |
| 16 | `O=C(c1ccncc1F)N1CCN(CC2CC2)c2ncccc2C1` | -3.706 | -45.19 |
| 17 | `CCCS(=O)(=O)N1CCN(CCCO)CC1` | 21.86 | 23.67 |
| 18 | `CN1CCCC2(CC1)CCN(C(=O)CCc1ccccc1F)CC2` | - | 2.211 |
| 19 | `Cc1c(C(=O)OCC2CC(=O)N(c3ccccc3)C2)cnn1C(C)C` (stereo unspecified) | 2.008 | 5.877 |
| 20 | `Cc1cc(C)n(CC(C)CNC(=O)NCc2ccco2)n1` (stereo unspecified) | 5.805 | 42.72 |
| 21 | `O=C1NCC2(CCCN(C(=O)CCn3cnc4ccccc43)CC2)O1` (stereo unspecified) | -9.615 | 15.85 |
| 22 | `N#Cc1ccc(F)c(CNC(=O)NCCC(=O)NC2CCCC2)c1` | -1.816 | 24.3 |
| 23 | `CCOCc1nnc(NCc2ccsc2)o1` | -28.2 | 7.603 |
| 24 | `CCC(C)NC(=O)c1nn(C)c(NC(=O)c2ccccc2OC)c1F` (stereo unspecified) | -24.03 | -15.6 |
| 25 | `Cc1n[nH]c(C2CN(CC(=O)NCCC3=CCCCC3)CCO2)n1` (stereo unspecified) | 0.3239 | -13.92 |
| 26 | `Cc1cc(C(=O)N2CCCC(C)C2)ccc1NCc1nc(C2CC2)no1` (stereo unspecified) | -2.061 | 16.58 |
| 27 | `Cc1noc(CCCC(=O)NC(C)c2nnc3n2CCCCC3)n1` (stereo unspecified) | 3.188 | -40.42 |
| 28 | `O=C(O)C(F)(F)F.[H][C@]12CCN(c3ncccn3)[C@@]1([H])CC[C@H](COCC(=O)N1CCCC1)O2` | 8.591 | -2.628 |
| 29 | `CC(=O)NCCNC(=O)c1sc(-c2ccc(C)cc2C)nc1C` | 0.6462 | -7.66 |
| 30 | `[H][C@@]12COC[C@@H](CC(=O)NCCOC)[C@]1([H])CN(C(=O)COC)C2` | -18.69 | 51.2 |
| 31 | `CS(=O)(=O)CCOc1nc(-c2ccccc2Cl)no1` | 21.3 | 4.649 |
| 32 | `CCN(Cc1c(F)cccc1Cl)c1cc(C2CCNCC2)nc(C)n1` | 79.97 | 100.4 |
| 33 | `CC(C)c1noc(C(C)N2CCN(CCc3ccncc3)CC2)n1` (stereo unspecified) | -0.1129 | -2.489 |
| 34 | `COCc1nc(CN2C(=O)OC[C@@H]2C(C)C)no1` | 1.017 | 23.91 |
| 35 | `COc1cccc2cc(CNCc3ccnc(N(C)C)c3)oc12` | -12.3 | 31.65 |
| 36 | `Cc1ncc(CN2CCCN(Cc3noc(C4CC4)n3)CC2)s1` | 3.414 | 7.767 |
| 37 | `Cc1cc(C)n(Cc2ccc(C(=O)N3CCOCC3(C)C)cc2)n1` | -64.92 | -5.176 |
| 38 | `Br.CCOc1ccc(N(CC(=O)c2ccccc2)C2=NCCCCC2)cc1` | 0.4525 | 4.657 |
| 39 | `Cc1ccc(NC(=O)N2CC[C@@H](O)C2)c(-c2nc(C3CC3)no2)c1` | - | 34.34 |
| 40 | `Cc1cc(CN(C)C(C(=O)O)c2ccc(C(C)(C)C)cc2)on1` (stereo unspecified) | -14.31 | 32.52 |
| 41 | `CNC(=O)CCc1cc(C)nc(C2CCN(c3cnccn3)CC2)c1` | 8.855 | -2.223 |
| 42 | `C1CCC(CSc2nnnn2C2CC2)OC1` (stereo unspecified) | -3.593 | 1.874 |
| 43 | `Cc1cccc(C(C(=O)NCc2csc(-c3ncccn3)n2)N(C)C)c1` (stereo unspecified) | -0.863 | 7.557 |
| 44 | `Cc1nc(N2CCCC2)nc2c1CCN(Cc1ccco1)CC2.O=C(O)C(F)(F)F` | 1.923 | 11.86 |
| 45 | `COC(C)c1cccc(NCc2cccs2)c1` (stereo unspecified) | 1.363 | 22.75 |
| 46 | `CC(=O)NCc1noc2c1CN(Cc1ccsc1)CC2` | 0.5851 | 21.26 |
| 47 | `CN(C(=O)CCc1cccs1)C1CCCN(C2Cc3ccccc3C2)C1` (stereo unspecified) | 8.11 | -8.194 |
| 48 | `CC(C)(C)N1CC(C(=O)N2CCN(CCn3cncn3)CC2)CC1=O` (stereo unspecified) | -2.829 | 22.49 |
| 49 | `Cc1ccc(C(=O)N2Cc3ccccc3C2)cc1N1CCNC1=O` | 4.295 | 11.18 |
| 50 | `Cn1nc(-c2ccccc2NC(=O)c2cncc(Br)c2)ccc1=O` | 5.534 | -3.794 & 11.93 |
| 51 | `Cc1ccc(C(=O)Nc2cc(C(N)=O)ccc2N2CCCCC2)cc1F` | -5.789 | -6.738 |
| 52 | `Cc1ccc(NC2CCN(C(=O)C(C(C)C)n3cncn3)CC2)nn1` (stereo unspecified) | -14.2 | 16.95 |
| 53 | `CC(CN1CCCCCC1)NCc1cc(-c2ccco2)on1` (stereo unspecified) | -19.13 | 18.34 |
| 54 | `Cc1nsc(N2CCCN(c3nc(C4CC4)ns3)CC2)n1` | 1.423 | 20.55 |
| 55 | `CCC(CO)N(Cc1cccnc1)C(=O)c1ccc(C)[nH]c1=O` (stereo unspecified) | -28.95 | -72.53 |
| 56 | `O=C(Nc1ccccc1OC(F)(F)F)C1CCS(=O)(=O)C1` (stereo unspecified) | -7.564 | 34.93 |
| 57 | `CN(c1cccnn1)C1CCN(C(=O)c2n[nH]c3c2CCC3)CC1` | 2.509 | 20 |
| 58 | `CC(C)c1nn2c(-c3cnn(C)c3)nnc2s1` | - | 10.48 |
| 59 | `Cc1nc(C2CCCN(C(=O)c3sc(C)nc3C)C2)no1` (stereo unspecified) | 0 | 19.74 |
| 60 | `O=C(Cn1cncn1)NCC1(O)CCCc2ccccc21` (stereo unspecified) | -22.3 | -9.992 |
| 61 | `Cc1nc(C2CCCN(C(C)C)C2)sc1Br` (stereo unspecified) | - | 23.39 |
| 62 | `CN1C(=O)CC(C(=O)O)C12CCN(Cc1ccc(F)c(Cl)c1)CC2` (stereo unspecified) | 5.972 | 17.81 |
| 63 | `CCc1nccc(CN2CCC(CNC(=O)Nc3ccccc3)C2)n1` (stereo unspecified) | -3.406 | -23.35 |
| 64 | `CCS(=O)(=O)N1CCC2(C1)C(=O)N(C)CCN2Cc1ccncc1.O=C(O)C(F)(F)F.O=C(O)C(F)(F)F` (stereo unspecified) | 1.748 | 11.76 |
| 65 | `CNC(=O)c1cccnc1N1CCN(C/C=C/c2ccccc2)CC1` | -2.634 | 29.68 |
| 66 | `Cc1nn(C)cc1-c1ccnc(N(C)Cc2ccc(F)cc2)n1` | - | 19.3 |
| 67 | `CCc1noc(CN2CCN(C(=O)Cc3ccc(F)cc3)CC2)n1` | -8.418 | 10.9 |
| 68 | `[H][C@@]12COC[C@]1([H])[C@H](OCc1ccccn1)CN2Cc1ccoc1` | -31.13 | 16.95 |
| 69 | `CN(C)CCN1CCC(NC2CSCCc3ccccc32)CC1` (stereo unspecified) | 3.461 | 46.73 |
| 70 | `CCc1nc2n(n1)CC(NCc1nc(-c3cccnc3)no1)CC2` (stereo unspecified) | 0.8107 | -6.075 |
| 71 | `N#Cc1cnn(-c2ccc(C(=O)Nc3ccccn3)cc2)c1N` | - | 28.9 |
| 72 | `CC(C)N(CCC#N)C(=O)c1cnc(-c2ccc3c(c2)OCO3)s1` | -28.19 | -28.78 |
| 73 | `CC(C)C1CN(C(=O)c2ccn(C)c(=O)c2)c2ccccc2N1` (stereo unspecified) | 10.42 | -11.41 |
| 74 | `O=C(O)C(F)(F)F.O=C(O)C(F)(F)F.[H][C@]12CCN(C(=O)c3ccncc3)C[C@@]1([H])OCCN(C1CCOCC1)C2` | 15.68 | 8.559 |
| 75 | `CCCOc1ccccc1CCCNc1ncnc2oc(C)nc12` | 12.3 | 83.62 |
| 76 | `CSCCC(Nc1nc(C)cc(C)n1)C(=O)NC1CC1` (stereo unspecified) | - | 5.301 |
| 77 | `COc1ccc(CN(CC2CCCO2)c2nc3c(s2)c(C)nn3C)cc1` (stereo unspecified) | 2.911 | 34.24 |
| 78 | `CCCNC(=O)N1CCC(Oc2cc(C)ccc2F)(C(=O)O)CC1` | -3.14 | -5.235 |
| 79 | `CN(C)C(=O)c1cccnc1SCc1ccccc1Cl` | -10.57 | 6.957 |
| 80 | `CN(C)c1cc(C(=O)N2CCCN(Cc3cscn3)CC2)ccn1` | 0.2225 | 48.43 |
| 81 | `Fc1ccc([C@@H]2COC[C@H]2NCc2cccc(F)c2)cc1.O=C(O)CC(O)(CC(=O)O)C(=O)O` | 5.563 | 1.786 |